{"source": "PubChem BioAssay AID720518", "about": "(National Center for Advancing Translational Sciences (NCATS), 2013)", "note": "Inconclusive means that the source gave no clear call. Such entries were picked first, then a sample of the others. Where the call is inconclusive, the potency comes from a doubtful curve fit. Calls of active or inactive are those of the source. Calls follow the shape of the full dose curve.", "data": [{"assay": "qHTS for Inhibitors of Cell Surface uPA Generation: Wild-type Protective Antigen (WT-PrAg) Counterscreen for Cherry-picked Compounds; also: potency is read from the fitted curve at half-maximal effect; as to activity (protection): 0% is about no effect", "details": "cells, WT protective antigen toxicity counterscreen; series mostly up to 115 µM; activity (protection): at the top concentration", "values": [{"compound": "C=C1C(=O)O[C@@H]2C[C@@H](C)[C@@H]3C4OC4C(=O)[C@@]3(C)[C@@H](O)[C@H]12", "note": "(stereo partly specified)", "Potency": "inconclusive: 23.3 µM [activator, single point]"}, {"compound": "O=C1[C@H]2[C@@H](c3ccc(F)cc3)N3C(=O)N(c4cccc(Br)c4)C(=O)[C@@]3(Cc3ccc(Cl)cc3)[C@H]2C(=O)N1C1CCCCC1", "Potency": "inconclusive: 2.07 µM [activator, full curve, poor fit]"}, {"compound": "O=C1CC(SC(=Nc2ccccc2)Nc2ccccc2)C(=O)N1c1cccc(Cl)c1", "note": "(stereo unspecified)", "Potency": "inconclusive: 23.3 µM [activator, full curve]"}, {"compound": "COc1ccc(Nc2cc(C)c3ccc(O)cc3n2)cc1", "Potency": "inconclusive: 8.26 µM [activator, full curve]"}, {"compound": "O=C(NCCCN1CCCC1=O)c1cccc(Oc2ccccc2)c1", "activity (protection)": "inactive: 0.0118%"}, {"compound": "CCC(C)C1NC(=O)C2CCCN2C(=O)C(CC(C)C)OC(=O)CCNC(=O)C(C)N(C)C(=O)C(C(C)C)N(C)C1=O", "note": "(stereo unspecified)", "Potency": "active: 3.69 µM"}, {"compound": "CC1Cc2nc(SCC(=O)Nc3ccc4c(c3)OCO4)n(-c3ccc(F)cc3)c(=O)c2S1", "note": "(stereo unspecified)", "activity (protection)": "inactive: -0.181%"}, {"compound": "COc1cc2c(O)c3c(c(-c4ccc5c(c4)OCO5)c2cc1OC)C(=O)OC3", "Potency": "inconclusive: 0.736 µM [activator, full curve, poor fit]"}, {"compound": "Cc1noc(C)c1CSCC(=O)Nc1cc(Cl)ccc1N1CCCCC1", "Potency": "inconclusive: 7.36 µM [activator, partial curve]"}, {"compound": "CCCCN(C(=O)c1cnccn1)c1c(N)n(CCC)c(=O)[nH]c1=O", "Potency": "inconclusive: 0.0585 µM [activator, full curve, poor fit]"}, {"compound": "C=CCOC(=O)C1=C(C)NC(C)=C(C(=O)OCC=C)C1c1cn(-c2ccccc2)nc1-c1ccco1", "activity (protection)": "inactive: 1.61%"}, {"compound": "CSc1ccc(CNCCCN(C)C)cc1", "Potency": "inconclusive: 36.9 µM [activator, full curve]"}, {"compound": "Cc1cccc(C(=O)Nc2cc(=O)n(C)c(=O)n2C)c1", "activity (protection)": "inactive: -1.45%"}, {"compound": "O=C1C=CC(O)(c2cc(=O)c3c(O)cc(O)cc3o2)C=C1", "Potency": "active: 16.5 µM"}, {"compound": "CCCCn1c(SCC(=O)Nc2cc(C(F)(F)F)ccc2Cl)nnc1C(CC)N(C)C", "note": "(stereo unspecified)", "Potency": "active: 58.5 µM"}, {"compound": "Cc1cccc(/C=N/Nc2cc(N3CCOCC3)nc(N3CCOCC3)n2)c1", "Potency": "inconclusive: 0.0736 µM [activator, partial curve]"}, {"compound": "C/C(=N\\NC(=S)Nc1c(C)cccc1C)c1ccc(OC(F)F)cc1", "Potency": "inconclusive: 14.7 µM [activator, partial curve]"}, {"compound": "CCOC(=O)C1=C(C)NC(C)=C(C(=O)OCC)C1C(=O)OCC(=O)NCCc1ccccc1", "Potency": "inconclusive: 6.56 µM [activator, full curve, poor fit]"}, {"compound": "COc1ccc([C@H]2CC(=O)C=C(c3ccc(CNC(=O)OC(C)(C)C)cc3)C2)cc1", "activity (protection)": "inactive: -1.05%"}, {"compound": "Cc1ccc2nc(-c3ccncc3)cc(C(=O)NCCc3ccc(F)cc3)c2c1", "Potency": "inconclusive: 11.7 µM [activator, full curve]"}, {"compound": "CCN(CC(=O)NCc1ccc(F)cc1)CC(=O)Nc1ccccc1-c1ccccc1", "Potency": "inconclusive: 23.3 µM [activator, full curve]"}, {"compound": "COc1ccc(CCNC(=O)c2c([S-])n(-c3ccc(C)cc3)c3cccc[n+]23)cc1", "Potency": "inconclusive: 16.5 µM [activator, full curve]"}, {"compound": "Cc1ccc2oc(=O)c3cnn(CC(=O)Nc4ccccc4N4CCN(C)CC4)c3c2c1", "Potency": "inconclusive: 5.21 µM [activator, full curve, poor fit]"}, {"compound": "CCOc1ccc(/C=N/NC(=S)Nc2c(C)cccc2C)cc1", "Potency": "inconclusive: 7.36 µM [activator, partial curve]"}, {"compound": "CN(C)c1cc(N/N=C\\c2ccccc2)nc(N(C)C)n1", "Potency": "inconclusive: 41.4 µM [activator, full curve]"}, {"compound": "COc1ccc(NS(=O)(=O)c2cccc(C(=O)NCc3ccccc3CN3CCCC3)c2)cc1", "Potency": "inconclusive: 4.65 µM [activator, partial curve]"}, {"compound": "CCOC(=O)N1CCN(C(=O)c2ccc3c(c2)sc2nc(-c4ccc(OC)cc4)cn23)CC1", "activity (protection)": "inactive: -0.943%"}, {"compound": "COC(=O)c1c(NC(=O)c2c(OC)cccc2OC)sc2c1C(C(=O)OC)CC2", "note": "(stereo unspecified)", "Potency": "active: 46.5 µM"}, {"compound": "S=C(Nc1ccccc1Cl)N1CCCC(c2ccccc2)=N1", "Potency": "active: 16.5 µM"}, {"compound": "O=C(O)c1cc(N=Nc2c(O)[nH]c3ccc([N+](=O)[O-])cc23)ccc1Cl", "activity (protection)": "inactive: -1.2%"}, {"compound": "COc1ccc(/C=N/Nc2cc(N3CCCC3)nc(N3CCCC3)n2)cc1", "Potency": "inconclusive: 3.29 µM [activator, full curve, poor fit]"}, {"compound": "COc1ccc(C(=O)NCCOC(C)C)cc1OC1CCN(C(C)=O)CC1", "activity (protection)": "inactive: -0.503%"}, {"compound": "CCN(CC)c1ccc(-c2c(C#N)c(N)nc(OC)c2C#N)cc1", "Potency": "inconclusive: 18.5 µM [activator, partial curve]"}, {"compound": "CC1=CC(C)(C)N2C(=O)C3(NCCc4c3[nH]c3ccccc43)c3cc(C)cc1c32", "note": "(stereo unspecified)", "Potency": "active: 2.33 µM"}, {"compound": "O=C1NC(=S)S/C1=C\\C=C\\c1ccc([N+](=O)[O-])o1", "Potency": "inconclusive: 58.5 µM [activator, full curve]"}, {"compound": "CN(C)c1cccc(C(=O)N(C)C2CCCN(Cc3ccccc3F)C2)c1", "note": "(stereo unspecified)", "Potency": "active: 23.3 µM"}]}]}
